Laboratory results: PubChem BioAssay AID1508588 (Peter MacCallum Cancer Centre, 2020)
Purpose: 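Knock-downs boosting vemurafenib effects on melanoma cell growth or lactate release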 (primary screen). Cell system: human WM266.4 melanoma cells (BRAF V600 mutant). Reagents: siRNA pool against human genes, 40 nM. Duration: 96 h from transfection to read-out. Treatment: vemurafenib 300 nM (about IC25), added 48 h after transfection, for 48 h; comparison arm got DMSO vehicle only. Measurement: 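Cell gain (DAPI nuclei at end minus before drug, mean of two replicates) and medium lactate by absorbance per cell, both as ratio to non-targeting siRNA, also grouped into fold-change classes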. Direction: cell gain with vemurafenib: higher = more cell gain than with non-targeting siRNA; lactate per cell with vemurafenib: higher = more lactate made per cell. Hit rule: 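a knock-down counts as enhancing when its fold-change classes with vehicle and with vemurafenib, taken together, show a stronger drug effect on cell gain or lactate per cell; exact class pairs not stated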. Calls: active = enhances vemurafenib effect; inactive = no enhancement seen.
The whole screen tested about 18,000 reagents; shown is an unselected part. 790 of all reagents (4.4%) were called active. 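Calls rest on a combination of fold-change classes in drug and vehicle arms, not all shown here.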 Entries without a mark were called inactive. Reagents against one gene are numbered here. Reagent sequences are not shown.

gene | reagent no. | cell gain with vemurafenib | lactate per cell with vemurafenib
CERKL | 1 | 0.71 | 0.68
PDILT | 1 | 0.9 | 0.89
ATF3 | 1 | 0.44 | 1.56
BNIP3 | 1 | 0.42 | 1.64
MRPL47 | 1 | 0.52 | 0.89
NCAPD3 | 1 | 0.33 | 1.5
TNFRSF25 | 1 | 0.64 | 0.79
MIS12 | 1 | 0.36 | 0.9
PSMC4 | 1 | -0.1 | 6.59
UROS | 1 | 0.8 | 0.63
ABI3BP | 1 | 0.93 | 0.58
DIAPH1 | 1 | 0.34 | 1.45
UNC5B | 1 | 0.87 | 0.64
DERA | 1 | 0.38 | 0.91
CLDN2 | 1 | 0.14 | 1.29
ALDH1B1 | 1 | 0.27 | 1.3
CADM3 | 1 | 1.06 | 0.53
SLC17A8 | 1 | 0.81 | 0.5
H2BC18 | 1 | 0.97 | 0.88
ELL | 1 | 0.65 | 0.92
PMM2 | 1 | 0.94 | 1.27
EPSTI1 | 1 | -0.15 (active) | 0.47
CRYBG1 | 1 | 0.71 | 0.76
IQCF1 | 1 | 1.28 | 0.62
HELQ | 1 | 0.46 | 0.42
SYCP2L | 1 | 0.66 | 0.68
MFSD6 | 1 | 1.14 | 1.42
GPR161 | 1 | 0.25 | 1.26
UBXN10 | 1 | 0.74 | 0.83
NR2C1 | 1 | 0.51 | 1.09
PHF3 | 1 | 0.76 | 0.76
GLP2R | 1 | 0.71 | 1.62
UBE2T | 1 | 0.07 | 1.54
KCNB2 | 1 | 0.85 | 0.7
ANGPT4 | 1 | 0.38 | 1.26
LINC03040 | 1 | 0.63 | 1.17
KLHL7 | 1 | 0.98 | 0.28
HCRT | 1 | 1.1 | 0.36
CATSPER1 | 1 | 0.84 | 0.74
TMEM121 | 1 | 0.53 | 1.36
OR5W2 | 1 | 0.47 | 1.42
CFAP161 | 1 | 1.03 | 0.49
ISG15 | 1 | 0.21 | 0.82
ATPAF2 | 1 | 0.77 | 1.33
TDO2 | 1 | 0.34 | 1.1

Quoted from the listing, 13 entries:
gene | reagent no. | cell gain with vemurafenib | lactate per cell with vemurafenib
CERKL | 1 | 0.71 | 0.68
PDILT | 1 | 0.9 | 0.89
ATF3 | 1 | 0.44 | 1.56
BNIP3 | 1 | 0.42 | 1.64
MRPL47 | 1 | 0.52 | 0.89
NCAPD3 | 1 | 0.33 | 1.5
TNFRSF25 | 1 | 0.64 | 0.79
MIS12 | 1 | 0.36 | 0.9
PSMC4 | 1 | -0.1 | 6.59
UROS | 1 | 0.8 | 0.63
ABI3BP | 1 | 0.93 | 0.58
DIAPH1 | 1 | 0.34 | 1.45
UNC5B | 1 | 0.87 | 0.64

The results go on.
gene | reagent no. | cell gain with vemurafenib | lactate per cell with vemurafenib
CSMD3 | 1 | 0.97 | 0.54
RPL10A | 1 | -0.03 | 2.27
MYDGF | 1 | 0.73 | 0.62
NFASC | 1 | 0.76 (active) | 0.19
ZNF423 | 1 | 0.54 | 0.98
ZMYND8 | 1 | 0.31 | 0.74
PARP14 | 1 | 1.06 | 0.68
RPUSD2 | 1 | 0.93 (active) | 0.7
LINC02872 | 1 | 0.54 | 0.64
RAB3IP | 1 | 0.56 | 0.84
CEACAM4 | 1 | 0.18 | 2.29
ODC1 | 1 | 0.07 | 1.26
CALM3 | 1 | 0.43 | 1.46
FUT6 | 1 | 0.68 | 0.78
ADSS1 | 1 | 0.31 | 2.17
SNX22 | 1 | 0.33 | 1.63
RPRM | 1 | 1.17 | 1.15
F10 | 1 | 0.5 | 0.93
CMIP | 1 | -0.06 | 1.48
HSD17B14 | 1 | 0.27 | 1.52
AP1G2 | 1 | 0.79 | 0.46
KRTAP4-7 | 1 | 0.52 | 1.04
TMEM174 | 1 | 0.87 | 1.16
NALCN | 1 | 1.04 | 0.44
GARIN1B | 1 | 0.99 | 1.25
ZNF273 | 1 | 0.14 | 1.57
STAG3L1 | 1 | 0.48 | 0.87
KRT5 | 1 | 0.5 | 1.71
PLA2G2A | 1 | 0.74 | 1.16
FSIP2 | 1 | 0.88 | 0.32
FSIP2 | 2 | 0.09 | 1.67
ABCD2 | 1 | 0.46 | 0.58
PLAC9 | 1 | 0.15 | 0.8
DHRS3 | 1 | 0.3 | 0.97
NEU2 | 1 | 0.6 | 0.48
SEC61G | 1 | 0.73 | 0.81
TBC1D20 | 1 | 0.29 | 1.4
CES4A | 1 | 0.91 | 0.68
SARM1 | 1 | -0.21 | 2.02
